PubChem BioAssay AID504774, Drosophila RNAi Screening Center | 2011
Test: 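Knock-downs that shift viability of MMS-exposed cells relative to untreated ones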 (primary screen). Cell system: Drosophila Kc167 cells. Knock-down reagent: long dsRNA against Drosophila genes, about 0.25 µg dsRNA per well. Timing: about 6 days: 3 days knock-down, then 3 days with or without MMS. Treatment: methyl methanesulphonate 0.004% (w/v) for 3 days after knock-down. Detection: 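Viability in wells given MMS, read as ATP luminescence, normalised by quantiles plate by plate and averaged across replicates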. Reading the numbers: mean viability with MMS: higher = more surviving cells after MMS.
The deposit covers about 23,000 reagents; below is a random part of those that have a named target and a result. 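Values are quantile-normalised luminescence on an arbitrary scale; higher means more cells surviving MMS.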 Names joined by + are all predicted targets of the reagent. Not all columns of the deposit are shown.

For Cyp4d21 [DRSC03305], how do the results read?
mean viability with MMS: 3.66e6

For CG17028 [DRSC10239], how do the results read?
mean viability with MMS: 3.59e6

For CG11357 [DRSC08183], what was measured?
mean viability with MMS: 3.79e6

For CG13318 [DRSC14581], how do the results read?
mean viability with MMS: 3.49e6

For Rh4 [DRSC11268], what was measured?
mean viability with MMS: 3.56e6

What is on record for CG4676 [DRSC06879]?
mean viability with MMS: 3.56e6

For CG6813 [DRSC16122], how do the results read?
mean viability with MMS: 3.57e6

With dbe [DRSC00811], what does the deposit list?
mean viability with MMS: 3.47e6

Which result is listed for CG4377 [DRSC04467]?
mean viability with MMS: 3.64e6

With dpr10 [DRSC09015], what does the deposit list?
mean viability with MMS: 3.66e6

What did the screen give for dpr10 [DRSC09018]?
mean viability with MMS: 3.64e6

With dpr10 [DRSC10159], what does the deposit list?
mean viability with MMS: 3.56e6

With dpr10 [DRSC10160], how do the results read?
mean viability with MMS: 3.53e6

What did the screen give for Manf [DRSC14091]?
mean viability with MMS: 3.66e6

Which result is listed for aln [DRSC08240]?
mean viability with MMS: 3.53e6

For CG8891 [DRSC03120], what does the deposit list?
mean viability with MMS: 3.62e6

Which result is listed for CG11836 [DRSC14396]?
mean viability with MMS: 3.46e6

Which result is listed for ND-B14.7 [DRSC04544]?
mean viability with MMS: 3.34e6

What is on record for CG12099 [DRSC08253]?
mean viability with MMS: 3.53e6

For Sin1 [DRSC05965], what was measured?
mean viability with MMS: 3.58e6

What is on record for CG4962 [DRSC10464]?
mean viability with MMS: 3.50e6

How did the screen score Rrp46 [DRSC15537]?
mean viability with MMS: 3.64e6

What is on record for CG31533 [DRSC13018]?
mean viability with MMS: 3.48e6

For Nepl7 [DRSC02495], how do the results read?
mean viability with MMS: 3.67e6

What is on record for DopEcR [DRSC08529]?
mean viability with MMS: 3.52e6

With Mlc-c [DRSC18683], what was measured?
mean viability with MMS: 3.49e6

With CPT2 [DRSC08553], what was measured?
mean viability with MMS: 3.26e6

What is on record for stj [DRSC06124]?
mean viability with MMS: 3.62e6

With CG11089 + CG31381 [DRSC13690], what was measured?
mean viability with MMS: 3.62e6

How did the screen score CG11089 + CG31381 [DRSC14290]?
mean viability with MMS: 3.64e6

For CG10139 [DRSC05972], what was measured?
mean viability with MMS: 3.36e6

With CG4598 [DRSC02763], how do the results read?
mean viability with MMS: 3.46e6

Which result is listed for SMC1 [DRSC16846]?
mean viability with MMS: 3.80e6

What did the screen give for Acat2 [DRSC08630]?
mean viability with MMS: 3.68e6

With CG14985 [DRSC08078], what does the deposit list?
mean viability with MMS: 3.38e6

For CG14985 [DRSC08443], how do the results read?
mean viability with MMS: 3.59e6

With sordd2 + sordd1 [DRSC20136], how do the results read?
mean viability with MMS: 3.50e6

Which result is listed for resilin [DRSC05627]?
mean viability with MMS: 3.62e6

Which result is listed for resilin [DRSC06595]?
mean viability with MMS: 3.55e6

For Mesh1 [DRSC14433], how do the results read?
mean viability with MMS: 3.49e6

For Crtc [DRSC10578], what was measured?
mean viability with MMS: 3.06e6

With Crtc [DRSC23130], how do the results read?
mean viability with MMS: 3.63e6

Which result is listed for CSN7 [DRSC06807]?
mean viability with MMS: 3.43e6

For CSN7 [DRSC06808], what does the deposit list?
mean viability with MMS: 3.40e6

Which result is listed for Gr22c [DRSC22081]?
mean viability with MMS: 3.72e6

Not a retest: 5 of the entries above.
Rrp46 [DRSC15537] → mean viability with MMS: 3.64e6
CG31533 [DRSC13018] → mean viability with MMS: 3.48e6
Nepl7 [DRSC02495] → mean viability with MMS: 3.67e6
DopEcR [DRSC08529] → mean viability with MMS: 3.52e6
Mlc-c [DRSC18683] → mean viability with MMS: 3.49e6
